These results are taken from patent US12168055B2, “Sonosensitization” (priority 2019, dated 2024).

The test system of the data set is C6 glioma tumor cells. Conditions: 5-ALA 20 mg/kg, sonication at 13.8 W/cm^2, 20 min.

In the case of `NCC(=O)CCC(=O)O` [5-ALA, 5-aminolevulinic acid], the “rise of tumor temperature” value was “about 2 °C” and the tumor temperature was 32 °C.
